From PubChem BioAssay AID326 (DTP/NCI, 2004) come the findings set out here.

The list shows only some results of the screen, not a fair sample: it gathers tests that were run many times, whatever their T/C, doses with no T/C, and many T/C values between a quarter and a half above the control. Other doses and runs of a compound stand elsewhere. T/C is the treated group as % of the vehicle group. Some doses have a count of surviving animals in place of a T/C: the source holds a T/C of zero for them, seemingly a mark for toxic or unscored doses. Survivors were counted at the toxicity check, usually on the fifth day, unless a day is given; later deaths do not show. Schedule codes are those of the source, taken here to give the interval after Q, in days (D) or hours (H), and the number of doses after X. For survival time, the PubChem record calls one and a half times the control and up active, and a quarter to a half above the control has no call in these data; cut-offs in other NCI protocols can differ. Some doses were run more than once; the results are listed from low to high. Numbered stars: 1 amine (or outer) side, 2 acyl side, 3 side chain; on linkers, the order of the positions; unused ones are H or OH. Bridge positions count the residues as written; N and C are the ends. Square brackets hold non-standard residues; d marks the D form. Peptide text beside a SMILES is read from it. I, II: the chains in the order shown. Actinocin(9to1) = Cc1c2oc3c(C)ccc(C(=O)[*:1])c3nc-2c(C(=O)[*:2])c(N)c1=O; aThr = C[C@H](O)[C@H](N)C(=O)O; NMeV = CN[C@H](C(=O)O)C(C)C; Sar = CNCC(=O)O

The subject of the experiment is CD2F1 mice, P388/DHAQ leukemia ip, median survival T/C. The experiment is described as follows: NCI In Vivo Anticancer Drug Screen. Data for tumor model P388 Leukemia resistant to Dihydroxy Anthracenedione; NSC 299195 (intraperitoneal) in CD2F1 (CDF1) mice. As to conditions: T/C endpoint: median survival time, higher T/C = longer survival. As to the method: The antitumor activity of compounds was measured in mice bearing transplantable tumors. Survival or tumor size were measured and the results are expressed as the measurement made in the treated group (T) divided by the measurement made in the vehicle treated control group (C). The tumor model used in this assay is P388 Leukemia resistant to Dihydroxy Anthracenedione; NSC 299195 (intraperitoneal) in CD2F1 (CDF1) mice

In the case of `CO[C@H]1Nc2c(ccc(C)c2O)C(=O)N2C=C(/C=C/C(N)=O)C[C@@H]12`, the T/C (dose: 0.22 mg/kg/injection, schedule: Q04DX003 (ip), vehicle: saline + alcohol) was 130 % of control; the T/C (dose: 0.36 mg/kg/injection, schedule: Q04DX003 (ip), vehicle: saline + alcohol) is 139 % of control; the T/C (dose: 0.6 mg/kg/injection, schedule: Q04DX003 (ip), vehicle: saline + alcohol) is 137 % of control. In addition, the survivor count (dose: 1.0 mg/kg/injection, schedule: Q04DX003 (ip), vehicle: saline + alcohol) is reported as 5 of 8.

Take `COc1cc([C@@H]2c3cc4c(cc3[C@@H](OC3OC5CO[C@@H](c6cccs6)OC5C(O)C3O)[C@H]3COC(=O)[C@H]23)OCO4)cc(OC)c1O` (stereo not given in full): the T/C is 126 % of control (dose: 6.48 mg/kg/injection, schedule: Q04DX003 (ip), vehicle: saline); 135 % of control (dose: 10.8 mg/kg/injection, schedule: Q04DX003 (ip), vehicle: saline); 128 % of control (dose: 18.0 mg/kg/injection, schedule: Q04DX003 (ip), vehicle: clinical formulation); 138 % of control (dose: 18.0 mg/kg/injection, schedule: Q04DX003 (ip), vehicle: saline); 135 % of control (dose: 30.0 mg/kg/injection, schedule: Q04DX003 (ip), vehicle: saline); 129 % of control (dose: 60.0 mg/kg/injection, schedule: Q04DX003 (ip), vehicle: saline). Further, the survivor count (dose: 30.0 mg/kg/injection, schedule: Q04DX003 (ip), vehicle: clinical formulation) is recorded as 5 of 8.

Regarding `CO[C@H](C(=O)[C@@H](O)[C@@H](C)O)[C@@H]1Cc2cc3cc(OC4CC(OC5CC(O)C(O)C(C)O5)C(O)C(C)O4)c(C)c(O)c3c(O)c2C(=O)[C@H]1OC1CC(OC2CC(OC3CC(C)(O)C(O)C(C)O3)C(O)C(C)O2)C(O)C(C)O1` (stereo not given in full), the survivor count (dose: 1.67 mg/kg/injection, schedule: Q01DX005 (ip), vehicle: clinical formulation) is 5 of 8.

Take `Cc1c2oc3c(C)ccc(C(=O)N[C@@H]4C(=O)N[C@H](C(C)C)C(=O)N5CCC[C@H]5C(=O)N(C)CC(=O)N(C)[C@@H](C(C)C)C(=O)O[C@H]4C)c3nc-2c(C(=O)N[C@@H]2C(=O)N[C@H](C(C)C)C(=O)N3CCC[C@H]3C(=O)N(C)CC(=O)N(C)[C@@H](C(C)C)C(=O)O[C@H]2C)c(N)c1=O` (I: [aThr][dV]P[Sar][NMeV] / II: [aThr][dV]P[Sar][NMeV]; ester I:1-I:C, II:1-II:C; linker I:N-II:N via Actinocin(9to1)): the T/C runs as follows: (dose: 64.8 micrograms/kg/injection, schedule: Q04DX003 (ip), vehicle: saline + alcohol) 132 and 142 % of control; (dose: 77.8 micrograms/kg/injection, schedule: Q04DX003 (ip), vehicle: saline + alcohol) 145 % of control; (dose: 500.0 micrograms/kg/injection, schedule: Q04DX003 (ip), vehicle: saline + alcohol) 147 % of control.
